Assay results published in the supplement of paper PMC10849652.
The list shows a part of the results.

Protein sequences, listed by entry. Tags and fused reporters are not part of them. Lines headed by an entry give the natural chain unless they say otherwise; changes in a name come on top.
UniProt P84157: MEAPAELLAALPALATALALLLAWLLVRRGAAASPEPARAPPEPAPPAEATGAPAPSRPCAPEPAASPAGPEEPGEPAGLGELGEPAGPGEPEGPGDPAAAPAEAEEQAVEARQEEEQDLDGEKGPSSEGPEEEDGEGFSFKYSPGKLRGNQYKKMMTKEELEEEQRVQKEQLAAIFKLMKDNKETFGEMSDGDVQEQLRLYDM
UniProt Q9H2K0, whole entry, looked up: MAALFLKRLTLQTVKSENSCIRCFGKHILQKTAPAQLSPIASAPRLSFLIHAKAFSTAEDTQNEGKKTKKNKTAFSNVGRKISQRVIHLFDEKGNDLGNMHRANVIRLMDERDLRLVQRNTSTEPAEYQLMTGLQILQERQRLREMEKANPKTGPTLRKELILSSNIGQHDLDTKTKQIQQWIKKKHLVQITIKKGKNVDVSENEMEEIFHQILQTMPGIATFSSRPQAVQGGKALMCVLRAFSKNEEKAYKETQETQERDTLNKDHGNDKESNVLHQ
UniProt P08590, whole entry, looked up: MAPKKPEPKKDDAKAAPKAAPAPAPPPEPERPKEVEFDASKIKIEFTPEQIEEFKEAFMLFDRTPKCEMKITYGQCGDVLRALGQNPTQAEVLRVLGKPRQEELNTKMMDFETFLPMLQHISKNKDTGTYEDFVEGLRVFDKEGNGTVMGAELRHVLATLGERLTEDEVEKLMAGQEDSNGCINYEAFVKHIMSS
MTHFD1, A0A384N5Y3, UniProt A0A384N5Y3, whole entry, looked up: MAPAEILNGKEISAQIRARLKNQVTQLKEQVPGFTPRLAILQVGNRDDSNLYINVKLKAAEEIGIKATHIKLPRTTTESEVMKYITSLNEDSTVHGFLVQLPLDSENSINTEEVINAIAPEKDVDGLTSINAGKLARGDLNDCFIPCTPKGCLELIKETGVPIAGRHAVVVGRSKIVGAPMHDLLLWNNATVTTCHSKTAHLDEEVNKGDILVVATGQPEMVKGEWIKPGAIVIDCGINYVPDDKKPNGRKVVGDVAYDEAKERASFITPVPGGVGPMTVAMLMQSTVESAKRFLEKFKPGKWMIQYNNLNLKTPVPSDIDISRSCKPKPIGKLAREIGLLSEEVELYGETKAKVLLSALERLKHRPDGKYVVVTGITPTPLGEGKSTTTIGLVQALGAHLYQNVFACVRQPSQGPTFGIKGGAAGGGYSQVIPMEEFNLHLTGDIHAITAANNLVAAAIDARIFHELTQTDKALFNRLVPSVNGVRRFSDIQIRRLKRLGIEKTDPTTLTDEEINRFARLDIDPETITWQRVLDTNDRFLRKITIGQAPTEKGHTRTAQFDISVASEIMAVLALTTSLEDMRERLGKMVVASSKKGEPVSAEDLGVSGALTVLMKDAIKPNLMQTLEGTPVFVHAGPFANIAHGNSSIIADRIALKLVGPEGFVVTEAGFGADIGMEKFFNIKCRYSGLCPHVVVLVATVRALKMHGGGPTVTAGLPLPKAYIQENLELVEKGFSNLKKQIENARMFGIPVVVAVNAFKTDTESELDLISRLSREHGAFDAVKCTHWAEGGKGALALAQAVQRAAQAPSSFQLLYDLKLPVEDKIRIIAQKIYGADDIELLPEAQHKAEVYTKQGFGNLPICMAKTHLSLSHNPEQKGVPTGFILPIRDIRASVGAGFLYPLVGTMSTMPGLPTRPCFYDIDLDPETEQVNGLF
UniProt Q9NXD2: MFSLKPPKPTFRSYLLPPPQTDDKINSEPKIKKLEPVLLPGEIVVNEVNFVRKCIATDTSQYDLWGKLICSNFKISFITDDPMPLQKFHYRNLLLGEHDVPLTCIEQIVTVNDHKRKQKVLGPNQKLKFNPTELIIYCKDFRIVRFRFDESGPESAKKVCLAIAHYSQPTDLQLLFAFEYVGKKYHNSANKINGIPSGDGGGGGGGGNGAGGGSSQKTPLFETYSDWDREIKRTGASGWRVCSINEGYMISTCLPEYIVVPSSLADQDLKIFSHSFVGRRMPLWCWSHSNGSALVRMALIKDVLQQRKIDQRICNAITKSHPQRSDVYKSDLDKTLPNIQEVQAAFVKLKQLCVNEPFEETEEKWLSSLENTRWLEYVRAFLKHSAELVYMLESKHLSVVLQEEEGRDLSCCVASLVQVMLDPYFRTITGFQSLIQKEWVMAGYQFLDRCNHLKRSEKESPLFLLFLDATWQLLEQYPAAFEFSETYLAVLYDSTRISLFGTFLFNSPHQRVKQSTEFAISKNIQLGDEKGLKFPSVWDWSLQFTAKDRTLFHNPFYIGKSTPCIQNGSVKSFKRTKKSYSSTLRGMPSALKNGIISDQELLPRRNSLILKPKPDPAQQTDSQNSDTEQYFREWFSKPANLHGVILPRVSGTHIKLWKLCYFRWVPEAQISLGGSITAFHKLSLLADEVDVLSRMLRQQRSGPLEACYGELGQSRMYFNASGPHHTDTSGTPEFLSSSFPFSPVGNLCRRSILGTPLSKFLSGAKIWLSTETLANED
UniProt Q93083: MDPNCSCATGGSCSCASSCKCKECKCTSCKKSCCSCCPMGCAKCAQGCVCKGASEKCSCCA
UniProt Q9BT17: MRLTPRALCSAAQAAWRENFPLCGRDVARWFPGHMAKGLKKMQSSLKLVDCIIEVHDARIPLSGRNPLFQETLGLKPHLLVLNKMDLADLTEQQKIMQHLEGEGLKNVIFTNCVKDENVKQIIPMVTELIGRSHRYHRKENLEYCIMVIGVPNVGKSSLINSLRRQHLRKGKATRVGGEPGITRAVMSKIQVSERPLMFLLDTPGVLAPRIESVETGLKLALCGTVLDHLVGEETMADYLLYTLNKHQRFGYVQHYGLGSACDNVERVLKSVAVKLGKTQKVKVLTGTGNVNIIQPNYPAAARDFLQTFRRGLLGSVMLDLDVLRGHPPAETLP
UniProt Q9UGC7: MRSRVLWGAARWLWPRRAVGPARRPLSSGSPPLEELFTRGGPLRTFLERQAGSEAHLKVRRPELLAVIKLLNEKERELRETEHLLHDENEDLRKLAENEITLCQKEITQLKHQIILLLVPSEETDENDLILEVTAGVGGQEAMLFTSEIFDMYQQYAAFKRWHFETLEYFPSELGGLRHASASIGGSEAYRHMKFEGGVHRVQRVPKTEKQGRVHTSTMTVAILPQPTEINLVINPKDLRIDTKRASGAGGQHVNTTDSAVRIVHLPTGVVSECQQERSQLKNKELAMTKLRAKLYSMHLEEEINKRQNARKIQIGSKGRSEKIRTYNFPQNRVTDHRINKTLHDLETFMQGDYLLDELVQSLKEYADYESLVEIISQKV
UniProt Q6P1R3: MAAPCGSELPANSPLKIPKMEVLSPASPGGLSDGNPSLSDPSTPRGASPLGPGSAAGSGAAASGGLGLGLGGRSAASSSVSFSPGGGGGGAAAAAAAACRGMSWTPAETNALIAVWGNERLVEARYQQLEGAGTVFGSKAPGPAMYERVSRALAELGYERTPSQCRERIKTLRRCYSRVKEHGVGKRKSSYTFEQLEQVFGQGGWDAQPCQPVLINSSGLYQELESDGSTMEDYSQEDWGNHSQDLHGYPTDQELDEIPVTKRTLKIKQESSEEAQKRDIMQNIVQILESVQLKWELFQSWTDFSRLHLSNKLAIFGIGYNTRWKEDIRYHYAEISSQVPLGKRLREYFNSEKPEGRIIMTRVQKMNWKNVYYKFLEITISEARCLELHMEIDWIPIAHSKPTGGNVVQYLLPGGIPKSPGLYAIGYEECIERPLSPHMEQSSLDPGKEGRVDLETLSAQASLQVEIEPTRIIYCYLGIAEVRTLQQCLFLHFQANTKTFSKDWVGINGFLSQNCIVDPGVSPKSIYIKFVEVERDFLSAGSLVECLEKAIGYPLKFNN
UniProt Q9UJ68: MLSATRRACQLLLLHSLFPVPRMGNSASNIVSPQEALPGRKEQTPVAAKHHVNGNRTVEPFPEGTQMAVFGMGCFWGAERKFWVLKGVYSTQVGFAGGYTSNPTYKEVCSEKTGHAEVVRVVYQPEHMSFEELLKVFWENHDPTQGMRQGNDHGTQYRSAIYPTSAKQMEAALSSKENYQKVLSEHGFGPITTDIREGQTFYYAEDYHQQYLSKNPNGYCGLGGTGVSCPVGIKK
UniProt Q8IUG5: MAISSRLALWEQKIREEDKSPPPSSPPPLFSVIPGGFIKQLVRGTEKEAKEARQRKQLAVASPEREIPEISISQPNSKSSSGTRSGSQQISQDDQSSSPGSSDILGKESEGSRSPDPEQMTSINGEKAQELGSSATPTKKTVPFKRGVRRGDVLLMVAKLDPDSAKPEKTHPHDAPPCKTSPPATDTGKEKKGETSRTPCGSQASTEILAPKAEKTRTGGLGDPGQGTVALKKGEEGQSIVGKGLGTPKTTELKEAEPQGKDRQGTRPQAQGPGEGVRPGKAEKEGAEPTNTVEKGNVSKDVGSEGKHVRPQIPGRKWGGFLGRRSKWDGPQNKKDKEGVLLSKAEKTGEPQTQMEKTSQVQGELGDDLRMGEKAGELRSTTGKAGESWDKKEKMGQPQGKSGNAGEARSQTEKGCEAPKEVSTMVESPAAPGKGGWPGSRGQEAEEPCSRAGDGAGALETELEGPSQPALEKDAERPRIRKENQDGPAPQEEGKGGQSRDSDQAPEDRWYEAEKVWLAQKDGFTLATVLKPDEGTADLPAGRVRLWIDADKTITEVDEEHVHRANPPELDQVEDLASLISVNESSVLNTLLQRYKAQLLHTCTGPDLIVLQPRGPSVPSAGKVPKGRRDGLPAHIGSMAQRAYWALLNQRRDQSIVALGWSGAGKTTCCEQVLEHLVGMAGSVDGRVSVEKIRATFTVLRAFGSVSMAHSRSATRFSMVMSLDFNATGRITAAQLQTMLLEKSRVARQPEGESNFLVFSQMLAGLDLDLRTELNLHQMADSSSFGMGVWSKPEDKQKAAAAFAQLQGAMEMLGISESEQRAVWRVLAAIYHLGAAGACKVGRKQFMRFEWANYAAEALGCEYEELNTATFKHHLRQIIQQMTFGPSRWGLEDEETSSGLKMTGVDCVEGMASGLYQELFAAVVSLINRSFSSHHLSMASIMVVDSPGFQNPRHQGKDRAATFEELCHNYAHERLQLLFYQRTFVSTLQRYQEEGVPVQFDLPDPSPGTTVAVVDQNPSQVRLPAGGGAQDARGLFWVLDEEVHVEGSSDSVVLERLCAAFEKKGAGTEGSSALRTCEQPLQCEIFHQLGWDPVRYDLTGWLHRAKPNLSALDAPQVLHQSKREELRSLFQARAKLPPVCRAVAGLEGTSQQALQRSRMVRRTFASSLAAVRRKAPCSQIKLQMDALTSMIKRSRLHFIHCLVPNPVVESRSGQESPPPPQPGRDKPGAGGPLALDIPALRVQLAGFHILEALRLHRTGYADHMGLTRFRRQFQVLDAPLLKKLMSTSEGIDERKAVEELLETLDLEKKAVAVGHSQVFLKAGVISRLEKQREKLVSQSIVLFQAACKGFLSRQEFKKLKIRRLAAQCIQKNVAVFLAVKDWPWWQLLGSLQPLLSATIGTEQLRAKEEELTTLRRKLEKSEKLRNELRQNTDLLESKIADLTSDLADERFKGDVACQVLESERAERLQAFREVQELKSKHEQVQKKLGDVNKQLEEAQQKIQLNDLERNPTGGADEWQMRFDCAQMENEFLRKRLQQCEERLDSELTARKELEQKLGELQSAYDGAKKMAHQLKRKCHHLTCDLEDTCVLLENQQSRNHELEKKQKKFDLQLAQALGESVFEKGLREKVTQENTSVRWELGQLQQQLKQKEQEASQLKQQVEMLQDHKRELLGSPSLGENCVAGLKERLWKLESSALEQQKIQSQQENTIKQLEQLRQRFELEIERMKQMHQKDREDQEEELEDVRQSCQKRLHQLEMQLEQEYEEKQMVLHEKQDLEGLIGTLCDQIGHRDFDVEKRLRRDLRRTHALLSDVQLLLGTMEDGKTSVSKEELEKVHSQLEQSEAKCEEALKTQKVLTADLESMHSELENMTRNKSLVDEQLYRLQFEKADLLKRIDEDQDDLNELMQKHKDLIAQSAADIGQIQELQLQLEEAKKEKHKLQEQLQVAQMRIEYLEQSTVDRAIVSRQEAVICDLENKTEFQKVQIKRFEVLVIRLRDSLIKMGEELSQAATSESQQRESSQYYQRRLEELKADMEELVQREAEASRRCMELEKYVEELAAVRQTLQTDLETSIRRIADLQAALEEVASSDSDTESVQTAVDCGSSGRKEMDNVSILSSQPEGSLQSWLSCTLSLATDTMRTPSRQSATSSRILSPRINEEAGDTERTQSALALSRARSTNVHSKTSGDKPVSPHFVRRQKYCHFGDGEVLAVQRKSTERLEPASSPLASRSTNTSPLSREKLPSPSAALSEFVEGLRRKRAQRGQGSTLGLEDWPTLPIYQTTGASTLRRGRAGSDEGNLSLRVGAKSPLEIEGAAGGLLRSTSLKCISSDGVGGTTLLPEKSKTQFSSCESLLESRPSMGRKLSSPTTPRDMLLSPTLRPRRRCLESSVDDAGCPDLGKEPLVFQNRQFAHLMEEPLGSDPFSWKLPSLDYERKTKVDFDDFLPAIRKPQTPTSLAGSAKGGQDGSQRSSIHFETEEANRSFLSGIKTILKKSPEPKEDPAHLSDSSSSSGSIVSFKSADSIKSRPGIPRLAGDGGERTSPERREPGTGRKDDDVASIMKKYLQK

Columns and labels:
Experiment in all cases: log2 fold change, soluble protein after heating vs DMSO (PISA); higher = thermal stabilisation; K562 cells, 10 uM, 30 min; active = over 0.2 and 3.5 SD of the protein, either way, in both replicates (recomputed)
[1] = compound: COc1cc2nc(-c3cc(F)ccc3O)nc(N[C@@H]3CNC[C@H]3C(C)(C)O)c2cc1OC
Procedure, shortened: (§1)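 Thermal stability values are relative to control samples and come from duplicates. They are expressed as log2 fold changes. For measurement, K562 cells (2×10^6 cells/mL) received 10 μM compound for 30 min, and aliquots were heated for 3 min over 48°C-58°C, pooled, and extracted at 4°C in PBS with 0.5% NP-40. Soluble protein, the supernatant after 21,000xg for 90 min, was quantified by TMTpro 16plex LC-MS/MS with equalised channel sums.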

lapatinib = compound: CS(=O)(=O)CCNCc1ccc(-c2ccc3ncnc(Nc4ccc(OCc5cccc(F)c5)c(Cl)c4)c3c2)o1 [lapatinib]
Procedure, shortened: as §1

ispinesib = compound: Cc1ccc(C(=O)N(CCCN)[C@@H](c2nc3cc(Cl)ccc3c(=O)n2Cc2ccccc2)C(C)C)cc1 [ispinesib]
Procedure, shortened: as §1

alisertib = compound: COc1cc(Nc2ncc3c(n2)-c2ccc(Cl)cc2C(c2c(F)cccc2OC)=NC3)ccc1C(=O)O [alisertib]
Procedure, shortened: as §1

[2] = compound: COc1cccc2cc(-c3nc([C@H]4CC[C@H](C(=O)O)CC4)n4ncnc(N)c34)[nH]c12
Procedure, shortened: as §1

duvelisib = compound: C[C@H](Nc1ncnc2nc[nH]c12)c1cc2cccc(Cl)c2c(=O)n1-c1ccccc1 [duvelisib]
Procedure, shortened: as §1

[3] = compound: Cc1cc(SCc2sc(-c3ccc(C(F)(F)F)cc3)nc2C)ccc1OCC(=O)O
Procedure, shortened: as §1

filanesib = compound: CON(C)C(=O)N1N=C(c2cc(F)ccc2F)S[C@@]1(CCCN)c1ccccc1 [filanesib]
Procedure, shortened: as §1

zotarolimus = compound: CO[C@H]1C[C@@H]2CC[C@@H](C)[C@@](O)(O2)C(=O)C(=O)N2CCCC[C@H]2C(=O)O[C@H]([C@H](C)C[C@@H]2CC[C@H](n3cnnn3)[C@H](OC)C2)CC(=O)[C@H](C)/C=C(\C)[C@@H](O)[C@@H](OC)C(=O)[C@H](C)C[C@H](C)/C=C/C=C/C=C/1C [zotarolimus]
Procedure, shortened: as §1

idasanutlin = compound: COc1cc(C(=O)O)ccc1NC(=O)[C@@H]1N[C@@H](CC(C)(C)C)[C@](C#N)(c2ccc(Cl)cc2F)[C@H]1c1cccc(Cl)c1F [idasanutlin]
Procedure, shortened: as §1

gefitinib = compound: COc1cc2ncnc(Nc3ccc(F)c(Cl)c3)c2cc1OCCCN1CCOCC1 [gefitinib]
Procedure, shortened: as §1

pictilisib = compound: CS(=O)(=O)N1CCN(Cc2cc3nc(-c4cccc5[nH]ncc45)nc(N4CCOCC4)c3s2)CC1 [pictilisib]
Procedure, shortened: as §1

[4] = compound: CS(=O)(=O)c1ccc(-c2cnc(N)c(C(=O)Nc3ccccc3)n2)cc1
Procedure, shortened: as §1

[5] = compound: C[C@@H]1COCCN1C2=NC(=NC(=C2)C3(CC3)S(=O)(=O)C)C4=C5C=CNC5=CC=C4
Procedure, shortened: as §1

[6] = compound: C[C@H](C1=CC=C(C=C1)C(=O)NC2=C3C=CNC3=NC=C2)N
Procedure, shortened: as §1

gandotinib = compound: Cc1cc(Nc2cc(CN3CCOCC3)c3nc(C)c(Cc4ccc(Cl)cc4F)n3n2)n[nH]1 [gandotinib]
Procedure, shortened: as §1

[7] = compound: COC1=CC=C(C=C1)CN2C=CC3=C2C=C(C=C3)C(=O)NO
Procedure, shortened: as §1

crizotinib = compound: C[C@@H](Oc1cc(-c2cnn(C3CCNCC3)c2)cnc1N)c1c(Cl)ccc(F)c1Cl [crizotinib]
Procedure, shortened: as §1

doramapimod = compound: Cc1ccc(-n2nc(C(C)(C)C)cc2NC(=O)Nc2ccc(OCCN3CCOCC3)c3ccccc23)cc1 [doramapimod]
Procedure, shortened: as §1

tozasertib = compound: Cc1cc(Nc2cc(N3CCN(C)CC3)nc(Sc3ccc(NC(=O)C4CC4)cc3)n2)n[nH]1 [tozasertib]
Procedure, shortened: as §1

Measured: log2 fold change

MXRA7 isoform 3 (UniProt P84157)
inactive: [1] 0.077 | lapatinib -0.27 | ispinesib -0.092

MYH2 (UniProt Q9UKX2)
inactive: alisertib -0.148 | [2] 0.101 | duvelisib 1.7 | [3] -0.594

MTIF3 (UniProt Q9H2K0)
inactive: filanesib 0.04 | zotarolimus 0.174 | idasanutlin 0.153 | gefitinib 0.243 | pictilisib -0.192 | [4] -0.152 | [5] -0.027 | [6] 0.041 | duvelisib 0.027 | gandotinib 0.045 | [3] 0.041

MTIF2 (UniProt P46199)
inactive: filanesib 0.21 | [4] -0.137 | [5] 0.337

MTDH (UniProt E5RJU9)
inactive: [7] 0.101 | crizotinib -0.258 | doramapimod 0.032

MTSS1 isoform 5 (UniProt O43312)
inactive: idasanutlin 0.009 | alisertib -0.196 | [1] 0.066 | [2] 0.171 | lapatinib 0.075 | tozasertib 0.116

MYO1B (UniProt O43795)
inactive: pictilisib -0.229 | gandotinib 0.02

MYL3 (UniProt P08590)
inactive: [7] -0.272 | zotarolimus 0.037 | alisertib -0.037 | [1] -0.16 | gefitinib 0.035 | [2] -0.08 | lapatinib 0.087 | pictilisib 0.002 | crizotinib 0.024 | [6] 0.028 | duvelisib 0.015 | gandotinib -0.025 | [3] 0.019 | doramapimod 0.075 | ispinesib 0.042

Retrieved one by one from the entries so far (2):
MTSS1 isoform 5 (UniProt O43312)
inactive: idasanutlin 0.009 | alisertib -0.196 | [1] 0.066 | [2] 0.171 | lapatinib 0.075 | tozasertib 0.116

MYO1B (UniProt O43795)
inactive: pictilisib -0.229 | gandotinib 0.02

(list continues)

MUC7 (UniProt Q8TAX7)
inactive: filanesib 0.671 | gefitinib 0.172 | [4] 0.316 | [5] -0.491 | ispinesib -0.221

MTHFD1, A0A384N5Y3
inactive: filanesib -0.025 | zotarolimus -0.032 | idasanutlin 0.024 | alisertib -0.011 | [1] 0.055 | gefitinib 0.075 | [2] 0.001 | lapatinib -0.016 | pictilisib 0.107 | [4] 0.109 | [5] 0.117 | [6] -0.008 | gandotinib -0.036 | [3] 0.081 | ispinesib -0.082

MTMR10 (UniProt Q9NXD2)
inactive: [7] -0.223 | filanesib -0.029 | alisertib -0.008 | [1] 0.095 | gefitinib -0.131 | [2] 0.071 | lapatinib -0.171 | [4] -0.015 | crizotinib 0.011 | [5] 0.327 | doramapimod 0.086

MT1L (UniProt Q93083)
inactive: idasanutlin 0.392 | alisertib 0.123 | [1] -0.323 | gefitinib -0.082 | [2] 0.196 | lapatinib 0.038 | pictilisib 0.07 | duvelisib -0.108 | gandotinib -0.293 | tozasertib 0.091 | [3] -0.159 | ispinesib 0.012

MTHFD1L (UniProt B7ZM99)
inactive: zotarolimus -0.069 | idasanutlin -0.226 | alisertib -0.009 | [1] 0.127 | gefitinib -0.018 | [2] 0.099 | lapatinib -0.062 | pictilisib 0.093 | [6] 0.257 | duvelisib 0.158 | gandotinib -0.029 | [3] -0.039 | ispinesib -0.074

MTG1 (UniProt Q9BT17)
inactive: [7] 0.13 | zotarolimus 0.041 | idasanutlin 0.035 | alisertib -0.014 | [1] 0.08 | gefitinib -0.01 | [2] -0.286 | lapatinib 0.05 | pictilisib 0.136 | crizotinib 0.005 | [5] 0.205 | [6] 0.137 | duvelisib 0.084 | gandotinib 0.148 | tozasertib -0.056 | [3] -0.01 | doramapimod -0.135 | ispinesib 0.235

MTURN (UniProt Q8N3F0)
inactive: [7] -0.007 | alisertib -0.013 | [1] -0.001 | [2] 0.097 | lapatinib -0.019 | crizotinib 0.094 | tozasertib 0.023 | doramapimod 0.009

MTRF1L (UniProt Q9UGC7)
inactive: zotarolimus 0.01 | idasanutlin -0.024 | alisertib 0.117 | [1] 0.007 | gefitinib 0.017 | [2] 0.014 | lapatinib 0.039 | pictilisib -0.037 | [5] -0.068 | [6] -0.21 | duvelisib 0.043 | gandotinib 0.04 | tozasertib -0.021 | [3] -0.06 | ispinesib 0.087

MSANTD2 (UniProt Q6P1R3)
inactive: filanesib -0.107 | [4] 0.295 | [5] 0.089 | [3] 0.039

MSRA (UniProt Q9UJ68)
inactive: [1] -0.244 | lapatinib 0.118 | duvelisib 0.128 | [3] 0.128

MYO18B isoform 3 (UniProt Q8IUG5)
inactive: filanesib 0.326 | idasanutlin 0.11 | gefitinib 0.026 | [4] 0.322 | [5] 0.088 | tozasertib 0.048 | ispinesib -0.379
